Literature values as cited in publication PMC9149975, “The diaryl-imidazopyridazine anti-plasmodial compound, MMV652103, exhibits anti-breast cancer activity” (EXCLI Journal, 2022).

Test system: MCF7 cells
Set-up: method as in Yang et al., 2013
Details: ref Yang et al., 2013, read-out: reported IC50 of doxorubicin; cited from earlier work

COc1cccc2c1C(=O)c1c(O)c3c(c(O)c1C2=O)C[C@@](O)(C(=O)CO)C[C@@H]3O[C@H]1C[C@H](N)[C@H](O)[C@H](C)O1 [Doxorubicin, reference compound]
IC50: 9.84 nM
